The assay concerns HEK293A TEAD-LUC reporter. In words: TEAD-luciferase reporter activity (YAP activation), robust Z score vs plate; higher = stronger YAP/TEAD activation. To be noted: 24 h. (In general: Reporter assays use an easily measured gene product as a stand-in for the process of interest.)

Structures can show the parent of a compound that is named as a salt. The list shows a part of the results. This data set is noisy: repeats of one test often differ as much as different tests do.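 The human kidney-derived cells carry a stably integrated construct of eight TEAD-binding elements driving luciferase, read by luminescence in a drug-repurposing library screen. A compound counts as a hit when its signal is more than five robust Z scores above the plate mean.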

As for `Nc1ncccc1OCc1ccccc1`, the TEAD-luciferase reporter activity (compound concentration: 200 nM) is inactive: -1.27, the TEAD-luciferase reporter activity (compound concentration: 2 uM) is inactive: 1.31 and the TEAD-luciferase reporter activity (compound concentration: 10 uM) was inactive: -0.587.

As to `N=C(N)c1ccc2cc(OC(=O)c3ccc(CNC(=O)CCCC(=O)O)o3)ccc2c1`, the TEAD-luciferase reporter activity runs as follows: (compound concentration: 200 nM) inactive: -0.879; (compound concentration: 2 uM) inactive: -1.37; (compound concentration: 10 uM) inactive: 2.69.

Regarding `O=C(c1c(F)ccc(NS(=O)(=O)N2CC[C@@H](F)C2)c1F)c1c[nH]c2ncc(-c3cnc(C4CC4)nc3)cc12`, the TEAD-luciferase reporter activity is inactive: -0.308 (compound concentration: 200 nM), inactive: 1.23 (compound concentration: 2 uM) and inactive: -2.05 (compound concentration: 10 uM).

Take `CCC(=O)N1Cc2ccccc2CC2(CCCCN2CC)C1` (configuration not stated): the TEAD-luciferase reporter activity (compound concentration: 200 nM) is inactive: 1.37 and the TEAD-luciferase reporter activity (compound concentration: 10 uM) is inactive: -1.19.

Consider `O=C(CC1CCN(CC2CC2)CC1)c1ccc(F)cc1`, for which the TEAD-luciferase reporter activity reads like this: (compound concentration: 200 nM) inactive: -0.658; (compound concentration: 2 uM) inactive: -1.53; (compound concentration: 10 uM) inactive: -1.46.

With `CCOc1cc(-c2nccc3cc(OC)c(OC)cc23)cc(OCC)c1OCC`, the TEAD-luciferase reporter activity (compound concentration: 200 nM) was inactive: -1.22, the TEAD-luciferase reporter activity (compound concentration: 2 uM) is inactive: -2 and the TEAD-luciferase reporter activity (compound concentration: 10 uM) was inactive: -2.42.

Regarding `CC[C@H](C)[C@@H]1NC(=O)[C@H](Cc2ccc(OC)cc2)NC(=O)CCCSC[C@@H](C(=O)N2CCC[C@H]2C(=O)N[C@@H](CC(C)C)C(=O)NCC(N)=O)NC(=O)[C@H](CC(N)=O)NC(=O)[C@H](CCC(N)=O)NC1=O` [Carbetocin], the TEAD-luciferase reporter activity runs as follows: (compound concentration: 200 nM) inactive: -1.36; (compound concentration: 2 uM) inactive: -0.452; (compound concentration: 10 uM) inactive: 1.33.

On to `CC(C)OC(=O)CCC/C=C\C[C@@H]1[C@@H](/C=C/C(F)(F)COc2ccccc2)[C@H](O)C[C@@H]1O` [Tafluprost], for which the TEAD-luciferase reporter activity is, setting by setting: (compound concentration: 200 nM) inactive: -1.08; (compound concentration: 2 uM) inactive: -0.0471; (compound concentration: 10 uM) inactive: -1.14.

In the case of `CCCN1CCC[C@@H](c2cccc(S(C)(=O)=O)c2)C1`, the TEAD-luciferase reporter activity is, setting by setting: (compound concentration: 200 nM) inactive: -0.388; (compound concentration: 2 uM) inactive: -0.234; (compound concentration: 10 uM) inactive: 1.09.

With `CN(C)CCCC(=O)N1CCC2(CC1)CC(NC(=O)N(C)C)c1ccccc1O2` (configuration not stated), the TEAD-luciferase reporter activity reads like this: (compound concentration: 200 nM) inactive: -0.973; (compound concentration: 10 uM) inactive: 0.941.

For `CN(C)CCNC(=O)NC[C@H]1CC[C@@H]2[C@H](O1)c1cc(C(F)(F)F)ccc1N[C@H]2c1ccccc1`, the TEAD-luciferase reporter activity is, setting by setting: (compound concentration: 200 nM) inactive: -2.21; (compound concentration: 2 uM) inactive: 3.28; (compound concentration: 10 uM) inactive: 1.29.

With `CC1=C(C)C(=O)C(C(CCCCCC(=O)O)c2ccccc2)=C(C)C1=O` (configuration not stated) [seratrodast], the TEAD-luciferase reporter activity (compound concentration: 200 nM) was inactive: -0.224, the TEAD-luciferase reporter activity (compound concentration: 2 uM) is inactive: -1.3 and the TEAD-luciferase reporter activity (compound concentration: 10 uM) was inactive: -0.376.

Turning to `CCc1cc2c(cc1N1CCC(N3CCOCC3)CC1)C(C)(C)c1[nH]c3cc(C#N)ccc3c1C2=O` [Alectinib hydrochloride], the TEAD-luciferase reporter activity runs as follows: (compound concentration: 200 nM) inactive: -1.3; (compound concentration: 2 uM) inactive: -0.257; (compound concentration: 10 uM) inactive: 1.72.

As to `COc1ccc(C(=O)CC(C)=O)c(OC)c1`, the TEAD-luciferase reporter activity runs as follows: (compound concentration: 200 nM) inactive: -1.34; (compound concentration: 2 uM) inactive: -2.47; (compound concentration: 10 uM) inactive: 3.39.

As for `CCN(CC)CCN=S(=O)(c1ccccc1)c1ccccc1`, the TEAD-luciferase reporter activity runs as follows: (compound concentration: 200 nM) inactive: -1.38; (compound concentration: 2 uM) inactive: -0.828; (compound concentration: 10 uM) active: 6.33.

On to `O=C(N/C=C(/c1ccccc1)c1cccs1)c1sc2ccc(C(F)(F)F)cc2c1O`, for which the TEAD-luciferase reporter activity is, setting by setting: (compound concentration: 200 nM) inactive: 2.86; (compound concentration: 2 uM) inactive: -0.0602; (compound concentration: 10 uM) inactive: 2.23.

Take `CC(C(=O)O)c1ccc(N2CC=CC2)c(Cl)c1` (configuration not stated) [pirprofen]: the TEAD-luciferase reporter activity (compound concentration: 200 nM) is inactive: -1.12, the TEAD-luciferase reporter activity (compound concentration: 2 uM) was inactive: -1.46 and the TEAD-luciferase reporter activity (compound concentration: 10 uM) is inactive: -0.364.

With `CCCN(CCC)C(=O)C(Cc1ccc(OCCCN2CCN(C)CC2)cc1)NC(=O)c1ccc(F)cc1` (configuration not stated), the TEAD-luciferase reporter activity is, setting by setting: (compound concentration: 200 nM) inactive: 0.826; (compound concentration: 2 uM) inactive: -0.257; (compound concentration: 10 uM) inactive: -0.453.

For the molecule `CC(=O)NC[C@H]1CN(c2ccc(N3Cc4cccnc4C3)c(F)c2)C(=O)O1`, the TEAD-luciferase reporter activity (compound concentration: 200 nM) was inactive: -0.133, the TEAD-luciferase reporter activity (compound concentration: 2 uM) is inactive: 0.776 and the TEAD-luciferase reporter activity (compound concentration: 10 uM) is inactive: 3.38.

Turning to `CC(C)C[C@H](NC(=O)CNC(=O)[C@H](Cc1ccc(O)cc1)NC(=O)[C@H](CO)NC(=O)[C@H](Cc1c[nH]c2ccccc12)NC(=O)[C@H](Cc1c[nH]cn1)NC(=O)[C@@H]1CCC(=O)N1)C(=O)N[C@@H](CCCNC(=N)N)C(=O)N1CCC[C@H]1C(=O)NCC(N)=O` [Gonadorelin], the TEAD-luciferase reporter activity was inactive: -2.14 (compound concentration: 200 nM), inactive: 1.04 (compound concentration: 2 uM) and active: 6.23 (compound concentration: 10 uM).

With `CN(C)CCNC(=O)COc1c2cccc1Cc1cccc(c1OCC(=O)NCCN(C)C)Cc1cccc(c1OCC(=O)NCCN(C)C)Cc1cccc(c1OCC(=O)NCCN(C)C)C2`, the TEAD-luciferase reporter activity (compound concentration: 200 nM) was inactive: 1.69, the TEAD-luciferase reporter activity (compound concentration: 2 uM) is inactive: -0.304 and the TEAD-luciferase reporter activity (compound concentration: 10 uM) is inactive: -0.589.

For the molecule `C[C@H](N[C@@H](CCc1ccccc1)C(=O)O)C(=O)N1CCC[C@H]1C(=O)O` [enalaprilat], where the note is “compound concentration: 2 uM”, the TEAD-luciferase reporter activity is inactive: 1.15.

For the molecule `C[C@H](N[C@@H](CCc1ccccc1)C(=O)O)C(=O)N1CCC[C@H]1C(=O)O`, the TEAD-luciferase reporter activity is inactive: -0.143 (compound concentration: 200 nM) and inactive: 1.1 (compound concentration: 10 uM).

Take `Cc1ccccc1-c1nc(N2CCCCC2)ncc1N(C)C(=O)C(C)(C)c1cc(C(F)(F)F)cc(C(F)(F)F)c1`: the TEAD-luciferase reporter activity (compound concentration: 200 nM) is inactive: 0.313, the TEAD-luciferase reporter activity (compound concentration: 2 uM) was inactive: 1.67 and the TEAD-luciferase reporter activity (compound concentration: 10 uM) was inactive: 0.132.

Turning to `Cc1cc(CCCOc2c(C)cc(-c3noc(C(F)(F)F)n3)cc2C)on1` [pleconaril], the TEAD-luciferase reporter activity is, setting by setting: (compound concentration: 200 nM) inactive: -1.16; (compound concentration: 2 uM) inactive: 0.582; (compound concentration: 10 uM) inactive: -2.1.

Take `O=C(CCCN1CC=C(n2c(O)nc3ccccc32)CC1)c1ccc(F)cc1`: the TEAD-luciferase reporter activity reads like this: (compound concentration: 200 nM) inactive: -2.27; (compound concentration: 10 uM) inactive: -0.072.
